Assays:
[1] = Distribution of organic secondary components into the organic extract phase (HPLC); type: physicochemical; settings: proportion by mass in organic extract phase, 30° C., phase ratio 0.5; for m(SC)ORG/m(SC)TOT Polar secondary components: impurities eluting earlier than oAB; for m(SC)ORG/m(SC)TOT Nonpolar secondary components: impurities eluting later than oAB
[2] = Acidic re-extraction of ortho-aminobenzoic acid from a solution in 1-decanol; type: physicochemical; settings: 1.5% by mass in 1-decanol, phase ratio 1.0, 30° C.

| Structure (SMILES) | m(SC)ORG/m(SC)TOT Polar secondary components [1] | m(SC)ORG/m(SC)TOT Nonpolar secondary components [1] | ortho-aminobenzoic acid recovered ([2]; hydrochloric acid 1.0 mol/L, one-stage extraction (example 12a)) | ortho-aminobenzoic acid recovered ([2]; hydrochloric acid 1.0 mol/L, three-stage extraction (example 12c)) | ortho-aminobenzoic acid recovered ([2]; hydrochloric acid 1.0 mol/L, two-stage extraction (example 12b)) | ortho-aminobenzoic acid recovered ([2]; sulfuric acid 1.0 mol/L, one-stage extraction (example 13a)) | ortho-aminobenzoic acid recovered ([2]; sulfuric acid 1.0 mol/L, three-stage extraction (example 13c)) | ortho-aminobenzoic acid recovered ([2]; sulfuric acid 1.0 mol/L, two-stage extraction (example 13b)) |
| --- | --- | --- | --- | --- | --- | --- | --- | --- |
| CCCCCCCCCCO [1-Decanol] | 0.09 | 0.65 |  |  |  |  |  |  |
| CCCCOC(C)=O [Butyl acetate] | 0.08 | 0.62 |  |  |  |  |  |  |
| Cc1ccccc1 [Toluene] | 0.00 | 0.29 |  |  |  |  |  |  |
| Nc1ccccc1C(=O)O [ortho-aminobenzoic acid] |  |  | 87.4% | 99.5% | 98.1% | 90.3% | 99.3% | 99.3% |
| CCC(C)=O [2-Butanone] | 0.24 | 0.73 |  |  |  |  |  |  |
